# Positions count from the first letter of the chain named. Results are given in words; binding and its absence hold for the method and conditions named. Some results given as binding are weak or reduced against the parent protein; the word gives no strength. For part of these data: Tags and fused reporters may be left off the sequences shown.
# Chains of the proteins cited; added tags and fusions are not shown. Lines headed by an entry give the natural chain unless they say otherwise; changes in a name come on top. A line that says so, or that is headed by a name, gives the form on record, which may keep a tag or linker. Residues count along the entry.
# UniProt P29279, residues 27-349: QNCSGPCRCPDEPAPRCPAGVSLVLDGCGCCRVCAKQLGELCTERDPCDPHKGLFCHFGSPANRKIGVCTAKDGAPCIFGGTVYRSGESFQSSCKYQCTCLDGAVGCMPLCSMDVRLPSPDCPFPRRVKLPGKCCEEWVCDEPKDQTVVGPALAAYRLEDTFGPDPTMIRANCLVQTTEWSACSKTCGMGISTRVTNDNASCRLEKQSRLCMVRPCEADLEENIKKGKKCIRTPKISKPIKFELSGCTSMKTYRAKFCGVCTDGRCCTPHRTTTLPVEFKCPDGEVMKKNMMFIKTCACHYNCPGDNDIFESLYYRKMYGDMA
# UniProt P29268, residues 26-348: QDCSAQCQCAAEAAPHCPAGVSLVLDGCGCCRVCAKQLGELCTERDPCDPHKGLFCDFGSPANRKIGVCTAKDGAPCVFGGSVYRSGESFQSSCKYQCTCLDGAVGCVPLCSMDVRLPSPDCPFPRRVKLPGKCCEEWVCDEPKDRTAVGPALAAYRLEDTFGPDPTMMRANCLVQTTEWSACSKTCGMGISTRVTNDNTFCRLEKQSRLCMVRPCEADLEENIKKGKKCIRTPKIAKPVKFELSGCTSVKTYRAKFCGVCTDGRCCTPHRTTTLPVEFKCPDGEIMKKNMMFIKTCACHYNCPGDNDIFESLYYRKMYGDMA
# cynomolgus CTGF (I7G525, form named): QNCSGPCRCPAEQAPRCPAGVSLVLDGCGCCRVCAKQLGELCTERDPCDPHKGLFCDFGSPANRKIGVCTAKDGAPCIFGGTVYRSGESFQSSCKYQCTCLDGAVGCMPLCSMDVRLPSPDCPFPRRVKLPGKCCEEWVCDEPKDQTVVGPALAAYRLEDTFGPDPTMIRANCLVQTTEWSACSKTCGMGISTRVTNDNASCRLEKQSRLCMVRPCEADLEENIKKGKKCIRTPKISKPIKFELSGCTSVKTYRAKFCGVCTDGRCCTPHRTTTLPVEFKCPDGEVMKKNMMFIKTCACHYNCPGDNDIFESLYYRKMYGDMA
# B1: fusion protein of SEQ ID NO: 74 (designed binder, not shown: small tags and cut ends)
# chain: QDSTSDLIPAPPLSKVPLQQNFQDNQFQGKWYVVGLAGNAILREDKQPAKMFATIYELKEDKSYDVTSVRFEAKSCKYTIKTFVPGSQPGEFTAGYIKSAPGQTSTLVRVVSTNYNQHAMVFFKHVTQNREIFVITLYGRTKELTSELKENFIRFSKSLGLPENHIVFPVPIDQCIDGGGGGSGGGGSGGGGSQDSTSDLIPAPPLSKVPLQQNFQDNQFQGKWYVVGWAGNVKLREDKQPQKMSATIYELKEDKSYDVTEVVFEQKKCHYIIKTFVPGSQPGEFTAGDIKSPPGYTSSLVRVVSTNYNQHAMVFFKKVSQNREFFWITLYGRTKELTSELKENFIRFSKSLGLPENHIVFPVPIDQCIDG
# B2: fusion protein of SEQ ID NO: 76 (designed binder, not shown: small tags and cut ends)
# chain: B1 chain with Q242L
# B3: lipocalin mutein of SEQ ID NO: 9 (designed binder)
# chain: QDSTSDLIPAPPLSKVPLQQNFQDNQFHGKWYVVGLAGNKILRIDKQPAKMFATIYELKEDKSYDVTSVRFEARSCSYTIKTFVPGSQPGEFTAGNIKSAPGQTSTLVRVVSTNYNQHAMVFFKHVSQNRETFVITLYGRTKELTSELKENFIRFSKSLGLPENHIVFPVPIDQCIDGSAWSHPQFEK
# B4: lipocalin mutein of SEQ ID NO: 25 (designed binder)
# chain: QDSTSDLIPAPPLSKVPLQQNFQDNQFHGKWYVVGMAGNFRLREDKDPSKMGATIYELKEDKSYNVTQVQFDDKKCLYVIETFVPGSQPGEFTLGAIKSFPGFTSQLVRVVSTNYNQHAMVFFKKVYQNREVFWITLYGRTKELTSELKENFIRFSKSLGLPENHIVFPVPIDQCIDGSAWSHPQFEK
# B5: lipocalin mutein of SEQ ID NO: 3 (designed binder)
# chain: QDSTSDLIPAPPLSKVPLQQNFQDNQFHGKWYVVGRAGNNRLREDKDPPKMWATIYELKEDKSYNVTHVHFMTKKCRYIIDTFVPGSQPGEFTLGAIKSGPGMTSPLVRIVSTNYNQHAMVFFKWVNQNREWFTITLYGRTKELTSELKENFIRFSKSLGLPENHIVFPVPIDQCIDGSAWSHPQFEK
# B6: lipocalin mutein of SEQ ID NO: 15 (designed binder, not shown: small tags and cut ends)
# chain: QDSTSDLIPAPPLSKVPLQQNFQDNQFQGKWYVVGLAGNAILREDKQPAKMFATIYELKEDKSYDVTSVRFEAKSCKYTIKTFVPGSQPGEFTAGYIKSAPGQTSTLVRVVSTNYNQHAMVFFKHVTQNREIFVITLYGRTKELTSELKENFIRFSKSLGLPENHIVFPVPIDQCIDG
# B7: lipocalin mutein of SEQ ID NO: 29 (designed binder)
# chain: QDSTSDLIPAPPLSKVPLQQNFQDNQFHGKWYVVGWAGNIKLREDKDPFKMSATIYELKEDKSYNVTEVVFEQKKCHYIIKTFVPGSQPGEFTLGDIKSPPGETSSLVRVVSTNYNQHAMVFFKKVFQNREFFWITLYGRTKELTSELKENFIRFSKSLGLPENHIVFPVPIDQCIDGSAWSHPQFEK
# B8: lipocalin mutein of SEQ ID NO: 7 (designed binder)
# chain: QDSTSDLIPAPPLSKVPLQQNFQDNQFHGKWYVVGLAGNYGLRTDKRPSKMFATIYELKEDKSYDVTSVRFEQERCHYTIRTFVPGSQPGEFTTGSIKSRPGQTSSLVRVVSTNYNQHAMVFFKSVIQNREYFAITLYGRTKELTSELKENFIRFSKSLGLPENHIVFPVPIDQCIDGSAWSHPQFEK
# B9: lipocalin mutein of SEQ ID NO: 23 (designed binder)
# chain: B6 chain with L36V, E44P, A94S, Y96Q, T127S
# B10: lipocalin mutein of SEQ ID NO: 5 (designed binder, not shown: small tags and cut ends)
# chain: QDSTSDLIPAPPLSKVPLQQNFQDNQFQGKWYVVGKAGNALREDKEPPKMWATIYELKEDKSYDVTHVHFLTKKCKYLIDTFVPGSQPGEFTIGAIKSGPGLTSPLVRVVSTNYNQHAMVFFKWVSQNREWFTITLYGRTKELTSELKENFIRFSKSLGLPENHIVFPVPIDQCIDG
# B11: lipocalin mutein of SEQ ID NO: 20 (designed binder, not shown: small tags and cut ends)
# chain: B6 chain with K77S, Y96N, F123A, H125A, T127Q, Q128L, I132H, V134F
# B12: lipocalin mutein of SEQ ID NO: 17 (designed binder, not shown: small tags and cut ends)
# chain: B6 chain with E44T, K77V, I80S, Y96N, T127S, I132F
# B13: lipocalin mutein of SEQ ID NO: 22 (designed binder, not shown: small tags and cut ends)
# chain: B6 chain with L36I, E44V, K77V, Y96N, T127S
# B14: lipocalin mutein of SEQ ID NO: 10 (designed binder, not shown: small tags and cut ends)
# chain: B6 chain with K77S, Y96N, F123W, H125S, T127A, Q128G, N129T, I132S, V134N, T136A
# B15: lipocalin mutein of SEQ ID NO: 6 (designed binder, not shown: small tags and cut ends)
# chain: QDSTSDLIPAPPLSKVPLQQNFQDNQFQGKWYVVGRAGNNQLREDKSPPKMWATIYELKEDKSYDVTHVHFSTKKCRYIIDTFVPGSQPGEFTAGAIKSGPGLTSPLVRVVSTNYNQHAMVFFKWVTQNREWFTITLYGRTKELTSELKENFIRFSKSLGLPENHIVFPVPIDQCIDG
# B16: lipocalin mutein of SEQ ID NO: 13 (designed binder, not shown: small tags and cut ends)
# chain: B6 chain with Q47Y, A73N, K77V, I80S, A94T, Y96N, T127S, I132F
# B17: lipocalin mutein of SEQ ID NO: 18 (designed binder, not shown: small tags and cut ends)
# chain: B6 chain with L36I, E44D, Q47Y, A73N, K77I, A94H, Y96N, A100H, T127S
# Molecular target: human CTGF (construct not stated) (human) (UniProt P29279)
# Assay: ELISA, coated human CTGF
row,binding,Binder
1,binds,B1
2,binds,B2
3,binds,B3
4,binds,B4
5,binds,B5
6,binds,B6
7,binds,B7
8,binds,B8
9,binds,B9

# Molecular target: mouse CTGF (Abbexa) (mouse) (UniProt P29268)
# Assay: SPR (Biacore); B = binding without determination of kinetics constants
row,binding,Binder
1,binds,B10
2,binds,B5
3,binds,B11
4,binds,B12
5,binds,B13
6,binds,B14
7,binds,B15
8,binds,B8
9,binds,B9
10,binds,B16
11,binds,B17

# Molecular target: cynomolgus CTGF (cynomolgus) (UniProt I7G525)
# Assay: as above
row,binding,Binder
1,binds,B9

# — US20240228562A1, “NOVEL LIPOCALIN MUTEINS SPECIFIC FOR CONNECTIVE TISSUE GROWTH FACTOR (CTGF)” (PIERIS PHARMACEUTICALS GMBH, priority 2021, published 2024)
